Reference: publication doi:10.1101/490318
No constants are given. Whether binding was seen depends on the method and setting. In cells and extracts the contact can be indirect. These calls come from enrichment with a bait or labelling near it, and not all partners need be listed.

B1: NUFP2 (protein, UniProt Q5F2E7 1-692)
chain: MEEKPGQPQPQHHHSHHHPHHHPQQQQQQQSHHHHHYYFYNHSHNHHHHHHHQQPHQYLQHGAEGSPKAQPKPLKHEQKHTLQQHQETPKKKTGYGEINGNAGEREISLKSLSSDEATNPISRVLNGNQQVVETSLKQTVKTSTFGKAGIKTKNFIQKNSMDKKNGKSYENKSGETQAVDKTDTIAIPNGVITSSSGYITNGYMSKGADNDGSGSESGYTTPKKRKARRNSAKGCENLNLVQDKIMQETSVPALKQGLETLKPDYSEQKGMRVDGSKPIWKYETGPGGTSRGKPAMGDVLRKSSDIKPGLSSKKFDDRPKGKHASAAASKEDSWTLFKPPPVFPVDNSSAKIVPKISYASKVKENLNKTVQNSSVSPSSSSSSSSTGETQTQSSSRLSQVPMSALKSVTSASFSNGPVLAGTDGSVYPSGGQPLLTTAANTLTPISTGTDSVLQDMSLASAAVEQIKSSLFIYPSNMQTVLLSAQVDLPSQTDQQNLGDIFQNQWGLSFINEPSAGPETVIGKSSDHKVMEVTFQGEYPATLVSQGAEIIPSGTEHPVFPKAYELEKRTSPQVLGHILKPGTTESGALSLDPSHIGDLQKADTSSQGALVFLSKDYEIENQNPLASPTNTLLGSAKEQRYQRGLERNDSWGSFDLRAAIVYHTKEMESIWNLQKQDPKRIITYNEAMDSPDQ
B2: BRX1 (protein, UniProt Q9DCA5 1-353)
chain: MAATKRKRRGGLEVQAKKPKRSSKDAGQPAKQADVAKEAEEENRDRIPGPVCKGKWKNKERILIFSSRGINFRTRHLMQDLRMLMPHSKADTKMDRKDKLFVINEVCEMKNCNKCIYFEAKKKQDLYMWLSNSPHGPSAKFLVQNIHTLAELKMTGNCLKGSRPLLSFDPAFDDLPHYALLKEFLIQIFSTPRYHPKSQPFVDHVFTFTILDNRIWFRNFQIIEEDAALVEIGPRFVLNLIKIFQGSFGGPTLYENPHYQSPNMHRRVIRSITAAKYRERQQVKDVQKLRKKEPKTILPHDPTADVFVIPAEEKPVEIQWVKPEPKVDLKARKRRIYKRHRKLQQKMSRGSAK
B3: Rrs1 (protein, UniProt Q9CYH6 1-365)
chain: MEGQRVEELLAKAEQEEAEKLQRITVHKELELEFDLGNLLASDRNPPTVLRQAGPSPEAELRALARDNTQLLINQLWRLPTERVEEAVVARLPEPATRLPREKPLPRPRPLTRWQQFARLKGIRPKKKTNLVWDEASGQWRRRWGYKRARDDTKEWLIEVPGSADPMEDQFAKRTQAKKERVAKNELNRLRNLARAHKMQMPSSAGLHPTGHQSKEELGRAMQVAKVSTASVGRFQERLPKEKAPRGSGKKRKFQPLFGDFAAEKKNQLELLRVMNSKKPRLDVTRATNKQMREEDQEEAAKRRKMSQKGKRKGGRQGPSGKRKGGPPGQGEKRKGGLGSKKHSWPSALAGKKKGVPPQGGKRRK
B4: Ddx47 (protein, UniProt Q9CWX9 1-455)
chain: MAADEEPDSPSGALQTAAEEEETKTFKDLGVTDVLCEACDQLGWAKPTKIQIEAIPLALQGRDIIGLAETGSGKTGAFALPILNALLETPQRLFALVLTPTRELAFQISEQFEALGSSIGVQCAVIVGGIDSMSQSLALAKKPHIVIATPGRLIDHLENTKGFNLRALKYLVMDEADRILNMDFETEVDKILKVIPRDRKTFLFSATMTKKVQKLQRAALKNPVKCAVSSKYQTVEKLQQYYLFIPSKFKDTYLVYILNELAGNSFMIFCSTCNNTQRTALLLRNLGFTAIPLHGQMSQSKRLGSLNKFKAKARSILLATDVASRGLDIPHVDVVVNFDIPTHSKDYIHRVGRTARAGRSGKAITFVTQYDVELFQRIEHLIGKKLPVFPTQDEEVMMLTERVNEAQRFARMELREHGEKKKRKREDAGDDDDKEGAIGVRNKVAGGKMKKRKGR
B5: RRP1 (protein, UniProt P56183 1-494)
chain: MVPGVPLPPEIQLAQRLAGNEQVTRDRALRKLRKYIEARSQRATGGFTPDELLKVWKGLFYCMWMQDKPLQQEELGRTIAQLVHAFHTTEAQHQFLKAFWQTMIREWVGIDRLRLDKFYMLMRMVLSESLKAVKARGWDERQIEQLLELLTTEILNPDSQAPSGVKSHFLEIFLEELAKVGAAELTADQNLQFIDPFCQIAARTKDSQVLHKIIQSIFQTIVEQAPLAIEDIMNELDTQSGEGEASDGDDGEASDGDDGEASDDDDGEASDGGDGDVADSDDSDGADDDDGDVSDGDGGDNDEGDSNKSSEGEQDLQDTPPKKLPAGTAHRAGPEADKEQAWDDEENAGPVLQFDYEALANRLFKLASRQSTPSQNRKRLYKVIQKLRELAGGTFPEDDVPEKAYKKMLEGRRERKKKKKRLPKPQPQNKEAGSEAESSSADPGPGRKRKRNRKTDEKAGQGGPPGKRRKPGARAKGAGAQQPKKRIQSSQSAE
B6: RRP8 (protein, UniProt Q9DB85 1-457)
chain: MFEEPEWVEAAPAIVGLGAATAQVRPATAPPVKGRKRRHLLATLRALEAASLSQQTPSLPGSDSEEEEEVGRKKRHLQRPSLASVSKEVGKKRKGKCQKQAPSISDSEGKEIRRKCHRQAPPLGGVSAGEEKGKRKCQEYSSLHLTQPLDSVDQTVHNSRTSTATIDPSKPSPESMSPNSSHTLSRKQWRNRQKNKRRHKNKFRPLQTPEQAPPKASIEETEVPPVPKSDSQESRAGALRARMTQRLDGARFRYLNEQLYSGPSSAARRLFQEDPEAFLLYHRGFQRQVKKWPLHPVDRIAKDLRQKPASLVVADFGCGDCRLASSVRNPVHCFDLASLDPRVTVCDMAQVPLEDESVDVAVFCLSLMGTNIRDFLEEANRVLKTGGLLKVAEVSSRFEDIRTFLGAVTKLGFKIIYKDLTNSHFFLFDFEKTGPPRVGPKAQLSGLKLQPCLYKRR
B7: RRP9 (protein, UniProt Q91WM3 1-475)
chain: MSTAVATRKRAKPAPGPGAAPVAGKRRRKVDSAADRGKSKGGGKMNEEISSDSESESLAPRKTEEEEEEELEETAQEKKLRLAKLYLEQLRQQEEEKAEARAFEEDQVAGRLKEDVLEQRGRLQKSVAKEIQAPAPTDIRVLRGHQLSITCLVITPDDLAIFSAAKDCTIIKWSVETGRKLHVIPRAKKGAQGQPAGHSSHVLCMAISSDGKYLASGDRSKLILIWEAQSCQHLYTFTGHRDAVSGLAFRKGTHQLYSTSHDRSVKVWNAAENSYVETLFGHQDAVAALDALSRECCVTAGGRDGTVRVWKIPEESQLVFYGHQGSIDCIHLINEEHMVSGADDGSVALWGLSKKRPLALQREAHGLHGEPGLEQPFWVSSVAALLNTDLVATGSHNARVRLWQCGEGFRQLDPLCDIPLVGFINSLKFSSAGDFLVAGVGQEHRLGRWWRIKEARNSVCIIPLRRLPVSPVAGS
B8: Ddx51 (protein, UniProt Q6P9R1 1-639)
chain: MALFHIARYAGPEAAGQGDTDAEAGSRARVLLERLQNRARERQQREPELETTGTAGEGEAAAAGKRRRRPRRRRRVSGSATPNSEAPRAKRRKADKDVDAGRGEEAPEELSAGAEDPGANPQEDVQRPPAPGRVLGDFARRKTPKVQPFLPAWLAKPSCVKKSVTEDLTPIEDIPEVHPDLQKQLRANGITSYFPVQAAVIPALLESADHGFLIGRGGYQPSDLCVSAPTGSGKTLAFVIPVVQALLHRVVCHIRALVVLPTKELAQQVSKVFNIYTDTTPLRVALVTGQKSLAKEQESLVQKTADGFRCLADIVVATPGRLVDHIDQTPGFSLQQLRFLIIDEADRMIDSMHQSWLPRVVAAAFYSEGPTGSCALLQRTQPQALTAASTCVPQMPLQKLLFSATLTQDPEKLQRLGLYQPRLFSTRLGQQSPKDTAEVDENSGKYTFPVGLTHHYVPCRLSSKPLIVLHLVLRMSCSRALCFTNSRENSHRLYLLAQAFGGVSVAEFSSRYGPGQRKKILKQFEQGKIQLLISTDATARGIDVQGVELVINYDAPQYLRTYVHRVGRTARAGKTGQAFTLLLKVQERKFLQMVSEAGVPELTHHEIPRKLLQPLVARYETALSQLEKTVKEEQKLKAA
B9: Ddx27 (protein, UniProt Q921N6 1-760)
chain: MLAELGFIRTIGENDEVPVEPESDSGDEEEEGPIVLGRKQKALQKNRSADFNPDFVFTEKEGMYDGSWALADVMSQLKKKRAATTLDEKIEKVRKRRKAEDKEAKSGKVEEKEGQADSDLKGQENPGEDEAGSKDEDSETDYSSEDEEILTKADTLKVKEKKKKKKGQAAGGFFEDASEYDKSLSFQDMNLSRPLLKAITAMGFKQPTPIQKACIPVGLLGKDICACAATGTGKTAAFALPVLERLIYKPRQAAVTRVLVLVPTRELGIQVHSVTKQLAQFCSITTCLAVGGLDVKSQEAALRAAPDILIATPGRLIDHLHNCPSFHLSSIEVLILDEADRMLDEYFEEQMKEIIRMCSHHRQTMLFSATMTDEVKDLASVSLKNPVRIFVNSNTDVAPFLRQEFIRIRPNREGDREAIVAALLMRTFTDHVMLFTQTKKQAHRMHILLGLLGLQVGELHGNLSQTQRLEALRRFKDEQIDILVATDVAARGLDIEGVKTVINFTMPNTVKHYVHRVGRTARAGRAGRSVSLVGEEERKMLKEIVKAAKAPVKARILPQDVILKFRDKIEKLEKDVYAVLQLEAEEKEMQQSEAQIDTAQRLLAKGKETADQEPERSWFQTKEERKKEKIAKALQEFDLALRGKKKRKKFMKDAKKKGEMTAEERSQFEILKAQMFAERLAKRNRRTKRARAMPEDEPTGPAKKQKQQQKSVFDEELTNTSKKALKQYRAGPSFEERKQSGLPRQRRGNFKSKSRYKRKK
B10: BST2 (protein, UniProt Q8R2Q8 1-152)
chain: MAPSFYHYLPVPMDEMGGKQGWGSHRQWLGAAILVVLFGVTLVILTIYFAVTANSVACRDGLRAQAECRNTTHLLQRQLTRTQDSLLQAETQANSCNLTVVTLQESLEKKVSQALEQQARIKELENEVTKLNQELENLRIQKETSSTVQVNS
B11: ZC3HAV1 (protein, UniProt Q3UPF5 1-996)
chain: MTDPEVFCFITKILCAHGGRMTLEELLGEISLPEAQLYELLKAAGPDRFVLLETGDQAGITRSVVATTRARVCRRKYCQRPCDSLHLCKLNLLGRCHYAQSQRNLCKYSHDVLSEQNFQVLKNHELSGLNQEELAVLLVQSDPFFMPEICKSYKGEGRKQICGQPQPCERLHICEHFTRGNCSYLNCLRSHNLMDRKVLAIMREHGLSSDVVQNIQDICNNKHTRRNPPSMRAPHPHRRGGAHRDRSKSRDRFHHNSLEVLSTVSPLGSGPPSPDVTGCKDPLEDVSADVTQKFKYLGTQDRAQLSSVSSKAAGVRGPSQMRASQEFLEDGDPDGLFSRNRSDSSTSRTSAAGFPLVAAQRNEAGAMKMGMPSGHHVEVKGKNEDIDRVPFLNSYIDGVTMEEATVSGILGKRATDNGLEEMILSSNHQKSVAKTQDPQTAGRITDSGQDTAFLHSKYEENPAWPGTSTHNGPNGFSQIMDETPNVSKSSPTGFGIKSAVTGGKEAVYSGVQSLRSHVLAMPGETTTPVQGSNRLPPSPLSSSTSHRVAASGSPGKSSTHASVSPASEPSRMMMMMSDPAEYSLCYIVNPVSPRMDDHGLKEICLDHLYRGCQQVNCNKNHFHLPYRWQLFILPTWMDFQDMEYIERAYCDPQIEIIVIEKHRINFKKMTCDSYPIRRLSTPSFVEKTLNSVFTTKWLWYWRNELNEYTQYGHESPSHTSSEINSAYLESFFHSCPRGVLQFHAGSQNYELSFQGMIQTNIASKTQRHVVRRPVFVSSKDVEQKRRGPDHQPVMPQADALTLFSSPQRNASTVSSNEYEFIELNNQDEEYAKISEQFKASMKQFKIVTIKRIWNQKLWDTFERKKQKMKNKTEMFLFHAVGRIHMDYICKNNFEWILHGNREIRYGKGNYFTKEAMYSHKSCSYDSRGTVMFVARVLVGSVIEGNMTLSSPPALYDSCVDTRLNPSVFVIFRKEQIYPEYVIEYMELEKEKGCIIS

What follows are binders tested against GFP-tagged G3BP1 (Ras-GTPase activating SH3 domain binding protein 1) (assay: affinity purification with mass spectrometry).
In the case of B1, the binding is reported as “binds”. For B2, the binding was “binds”. B3 was tested, and the binding was “binds”. In the case of B4, the binding is reported as “binds”. In the case of B5, the binding is reported as “binds”. For B6, the binding was “binds”. With B7 the binding was “binds”. In the case of B8, the binding is reported as “binds”. In the case of B9, the binding is reported as “binds”. With B10 the binding was “binds”. With B11 the binding was “binds”.
